From article PMC11490702
Where a chain is given by its changes, count along the chain named. Results are given in words; binding and its absence hold for the method and conditions named. Binding seen in cells or lysates may run through a third protein. Some binding calls cover weakened binding; strength is not graded here. Sequences can lack the tags named with a protein.

The chains behind the UniProt entries cited, without tags or fusion partners.
UniProt P31946: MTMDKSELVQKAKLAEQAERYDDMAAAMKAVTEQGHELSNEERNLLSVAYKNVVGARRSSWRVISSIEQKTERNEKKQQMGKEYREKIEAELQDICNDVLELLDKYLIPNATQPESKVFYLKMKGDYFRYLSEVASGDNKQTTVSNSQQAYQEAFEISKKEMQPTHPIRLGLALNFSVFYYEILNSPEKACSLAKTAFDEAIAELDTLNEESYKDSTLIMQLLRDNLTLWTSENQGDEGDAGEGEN
UniProt P63104: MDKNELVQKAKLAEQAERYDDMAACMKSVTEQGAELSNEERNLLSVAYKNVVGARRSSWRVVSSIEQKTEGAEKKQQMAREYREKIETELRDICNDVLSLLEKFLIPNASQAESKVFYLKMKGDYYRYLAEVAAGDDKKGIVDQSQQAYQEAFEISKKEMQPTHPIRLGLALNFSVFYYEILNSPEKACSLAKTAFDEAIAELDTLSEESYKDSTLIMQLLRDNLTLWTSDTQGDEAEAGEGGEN

Key:
[1] = target: T1, Flag-OGT-S20A (UniProt O15294); assay: co-IP; cells co-transfected with Flag-OGT (WT or S20A) and HA-14-3-3 isoforms; immunoprecipitated with anti-Flag
T1 sequence: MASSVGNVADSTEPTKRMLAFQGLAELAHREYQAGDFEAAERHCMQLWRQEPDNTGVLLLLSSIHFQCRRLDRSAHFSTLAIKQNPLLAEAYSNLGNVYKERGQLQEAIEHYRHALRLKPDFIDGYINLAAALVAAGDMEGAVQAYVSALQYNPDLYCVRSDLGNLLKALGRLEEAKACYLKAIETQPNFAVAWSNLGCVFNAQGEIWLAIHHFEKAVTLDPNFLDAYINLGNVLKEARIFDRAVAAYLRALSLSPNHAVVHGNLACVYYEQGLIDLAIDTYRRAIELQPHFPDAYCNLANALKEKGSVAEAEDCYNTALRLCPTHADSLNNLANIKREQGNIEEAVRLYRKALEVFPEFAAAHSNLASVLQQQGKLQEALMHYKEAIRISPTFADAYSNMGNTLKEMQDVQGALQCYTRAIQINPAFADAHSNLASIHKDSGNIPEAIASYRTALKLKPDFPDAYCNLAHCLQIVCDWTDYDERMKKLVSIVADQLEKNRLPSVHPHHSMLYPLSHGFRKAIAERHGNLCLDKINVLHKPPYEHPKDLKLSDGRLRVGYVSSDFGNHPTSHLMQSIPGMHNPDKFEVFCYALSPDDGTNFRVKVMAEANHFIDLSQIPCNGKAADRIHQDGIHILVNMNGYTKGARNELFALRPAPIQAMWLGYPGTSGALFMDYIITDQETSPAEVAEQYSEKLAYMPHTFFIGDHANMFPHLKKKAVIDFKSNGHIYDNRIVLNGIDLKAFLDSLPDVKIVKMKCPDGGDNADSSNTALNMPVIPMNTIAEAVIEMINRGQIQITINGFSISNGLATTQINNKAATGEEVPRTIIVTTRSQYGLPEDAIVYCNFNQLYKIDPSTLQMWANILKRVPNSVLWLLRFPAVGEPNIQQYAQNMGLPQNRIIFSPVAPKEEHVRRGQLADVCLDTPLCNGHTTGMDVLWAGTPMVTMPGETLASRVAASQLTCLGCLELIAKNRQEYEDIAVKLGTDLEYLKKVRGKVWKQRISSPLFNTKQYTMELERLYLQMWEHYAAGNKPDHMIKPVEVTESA

[2] = target: T2, Flag-OGT-WT (UniProt O15294); assay: as above
T2 sequence: T1 sequence with A20S

## HA-14-3-3-β (from UniProt P31946 1-246)
[1]
  binding: binds
[2]
  binding: binds

## HA-14-3-3-ζ (from UniProt P63104 1-245)
[1]
  binding: binds
[2]
  binding: binds
